# Results are given in words; binding and its absence hold for the method and conditions named. Where a sequence is shown, tags or fusion partners need not be part of it.
# T1: His-tagged Human ACVR2B (human) (UniProt Q13705)
# T1 sequence (looked up): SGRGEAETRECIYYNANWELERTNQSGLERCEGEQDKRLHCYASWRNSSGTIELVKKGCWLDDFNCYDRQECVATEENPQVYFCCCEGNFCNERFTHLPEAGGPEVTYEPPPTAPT
# T2: His-tagged Mouse ACVR2B (mouse) (UniProt P27040)
# T2 sequence (looked up): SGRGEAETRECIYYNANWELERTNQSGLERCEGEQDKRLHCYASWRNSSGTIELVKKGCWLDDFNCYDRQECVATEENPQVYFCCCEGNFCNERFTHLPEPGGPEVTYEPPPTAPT
# Tests used:
# [1] = biological target: T1, His-tagged Human ACVR2B (human); assay: ELISA, coated antigen, 10 pt
# [2] = biological target: T2, His-tagged Mouse ACVR2B (mouse); assay: ELISA, coated antigen, 10 pt
binder,measurement,setting,value
"372_B09 (antibody, V domains shown) VH: EVQLLESGGGLVQPGGSLRLSCAASGFTFSSYSMNWVRQAPGKGLEWVSSINYNSGYTSYADSVKGRFTISRDNSKNTLYLQMNSLRAEDTAVYYCARGATWHDTHLDYWGQGTLVTVSS VL: DIQMTQSPSSLSASVGDRVTITCRASQSILTYLNWYQQKPGKAPKLLIYAATSRASGVPSRFSGSGSGTDFTLTISSLQPEDFATYYCQQSYETPLTFGGGTKVEIK",binding,[1],no binding (tested: 1 uM)
same,binding,[2],no binding (tested: 1 uM)
"373_F07 (antibody, V domains shown) VH: EVQLLESGGGLVQPGGSLRLSCAASGFTFSSYSMNWVRQAPGKGLEWVSGINYNSGYKSYADSVKGRFTISRDNSKNTLYLQMNSLRAEDTAVYYCARGATWHDTHLDYWGQGTLVTVSS VL: DIQMTQSPSSLSASVGDRVTITCRASQSILSYLNWYQQKPGKAPKLLIYAATSLASGVPSRFSGSGSGTDFTLTISSLQPEDFATYYCQQSYETPLTFGGGTKVEIK",binding,[1],no binding (tested: 1 uM)
same,binding,[2],no binding (tested: 1 uM)
"374_A05 (antibody, V domains shown) VH: EVQLLESGGGLVQPGGSLRLSCAASGFTFSDYGMNWVRQAPGKGLEWVANINYNGGYKGYADSVKGRFTISRDNSKNTLYLQMNSLRAEDTAVYYCARGATWHDTHLDYWGQGTLVTVSS VL: DIQMTQSPSSLSASVGDRVTITCRASQSIVRYLNWYQQKPGKAPKLVIYAATSLASGVPSRFSGSGSGTDFTLTISSLQPEDFATYYCQQSYELPLTFGGGTKVEIK",binding,[1],no binding (tested: 1 uM top)
same,binding,[2],no binding (tested: 1 uM top)
"374_G05 (antibody, V domains shown) VH: EVQLLESGGGLVQPGGSLRLSCAASGFTFSSYSMNWVRQAPGKGLEWVSNINYNSGYKGYADSVKGRFTISRDNSKNTLYLQMNSLRAEDTAVYYCARGATWHDTHLDYWGQGTLVTVSS VL: DIQMTQSPSSLSASVGDRVTITCRASQSIISYLNWYQQKPGKAPKLLIYAATSRASGVPSRFSGSGSGTDFTLTISSLQPEDFATYYCQQSYDLPLTFGGGTKVEIK",binding,[1],no binding (tested: 1 uM top)
same,binding,[2],no binding (tested: 1 uM top)
"365_E05 (antibody, V domains shown) VH: EVQLLESGGGLVQPGGSLRLSCAASGFTFSSYGMHWVRQAPGKGLEWVAGINYNGGYTSYADSVKGRFTISRDNSKNTLYLQMNSLRAEDTAVYYCARSANWHDTALDYWGQGTLVTVSS VL: DIQMTQSPSSLSASVGDRVTITCRASQSIVSYVNWYQQKPGKAPKLLIYAATSLASGVPSRFSGSGSGTDFTLTISSLQPEDFATYYCQQSYDNPLTFGGGTKVEIK",binding,[1],no binding (tested: 1 uM top)
same,binding,[2],no binding (tested: 1 uM top)
"365_E07 (antibody, V domains shown) VH: EVQLLESGGGLVQPGGSLRLSCAASGFTFDSYGMHWVRQAPGKGLEWVSGINYNSGYTSYADSVKGRFTISRDNSKNTLYLQMNSLRAEDTAVYYCAKSANWHDTHLDYWGQGTLVTVSS VL: DIQMTQSPSSLSASVGDRVTITCRASQSILSYLNWYQQKPGKAPKLLIYAATSRASGVPSRFSGSGSGTDFTLTISSLQPEDFATYYCQQSYDNPLTFGGGTKVEIK",binding,[1],no binding (tested: 1 uM top)
same,binding,[2],no binding (tested: 1 uM top)
"366_B12 (antibody, V domains shown) VH: EVQLLESGGGLVQPGGSLRLSCAASGFTFSSYSMNWVRQAPGKGLEWVAGINYNSGYKGYADSVKGRFTISRDNSKNTLYLQMNSLRAEDTAVYYCARSANWHDTALDYWGQGTLVTVSS VL: DIQMTQSPSSLSASVGDRVTITCRASQSILTYVNWYQQKPGKAPKLLIYAATSRASGVPSRFSGSGSGTDFTLTISSLQPEDFATYYCQQSYDNPLTFGGGTKVEIK",binding,[1],no binding (tested: 1 uM top)
same,binding,[2],no binding (tested: 1 uM top)
"367_H06 (antibody, V domains shown) VH: EVQLLESGGGLVQPGGSLRLSCAASGFTFSSYGMNWVRQAPGKGLEWVSNINYNGGYTGYADSVKGRFTISRDNSKNTLYLQMNSLRAEDTAVYYCARSANWHDTHLDYWGQGTLVTVSS VL: DIQMTQSPSSLSASVGDRVTITCRASQSIITYLNWYQQKPGKAPKLLIYAATSRASGVPSRFSGSGSGTDFTLTISSLQPEDFATYYCQQSYDTPLTFGGGTKVEIK",binding,[1],no binding (tested: 1 uM top)
same,binding,[2],no binding (tested: 1 uM top)
"367_H11 (antibody, V domains shown) VH: EVQLLESGGGLVQPGGSLRLSCAASGFTFSSYGMNWVRQAPGKGLEWVAGINYNGGYKGYADSVKGRFTISRDNSKNTLYLQMNSLRAEDTAVYYCARSANWHDTALDYWGQGTLVTVSS VL: DIQMTQSPSSLSASVGDRVTITCRASQSIISYVNWYQQKPGKAPKLVIYAATSRASGVPSRFSGSGSGTDFTLTISSLQPEDFATYYCQQSYNSPLTFGGGTKVEIK",binding,[1],no binding (tested: 1 uM top)
same,binding,[2],no binding (tested: 1 uM top)
"368_F03 (antibody, V domains shown) VH: EVQLLESGGGLVQPGGSLRLSCAASGFTFDSYSMNWVRQAPGKGLEWVAGINYNSGYTGYADSVKGRFTISRDNSKNTLYLQMNSLRAEDTAVYYCAKSANWHDTALDYWGQGTLVTVSS VL: DIQMTQSPSSLSASVGDRVTITCRASQSIISYLNWYQQKPGKAPKLVIYAATSRHSGVPSRFSGSGSGTDFTLTISSLQPEDFATYYCQQSYDSPLTFGGGTKVEIK",binding,[1],no binding (tested: 1 uM top)
same,binding,[2],no binding (tested: 1 uM top)
"369_D02 (antibody, V domains shown) VH: EVQLLESGGGLVQPGGSLRLSCAASGFTFSDYSMNWVRQAPGKGLEWVSNINYNSGYTGYADSVKGRFTISRDNSKNTLYLQMNSLRAEDTAVYYCARSANWHDTALDYWGQGTLVTVSS VL: DIQMTQSPSSLSASVGDRVTITCRASQSILSYLNWYQQKPGKAPKLVIYAVTSRASGVPSRFSGSGSGTDFTLTISSLQPEDFATYYCQQSYDTPLTFGGGTKVEIK",binding,[1],no binding (tested: 1 uM top)
same,binding,[2],no binding (tested: 1 uM top)
"369_F01 (antibody, V domains shown) VH: EVQLLESGGGLVQPGGSLRLSCAASGFTFSSYGMNWVRQAPGKGLEWVSGINYNGGYKSYADSVKGRFTISRDNSKNTLYLQMNSLRAEDTAVYYCARSANWHDTALDYWGQGTLVTVSS VL: DIQMTQSPSSLSASVGDRVTITCRASQSILTYVNWYQQKPGKAPKLLIYAATSRASGVPSRFSGSGSGTDFTLTISSLQPEDFATYYCQQSYELPLTFGGGTKVEIK",binding,[1],no binding (tested: 1 uM top)
same,binding,[2],no binding (tested: 1 uM top)
"369_H06 (antibody, V domains shown) VH: EVQLLESGGGLVQPGGSLRLSCAASGFTFSSYGMNWVRQAPGKGLEWVANINYNGGYKSYADSVKGRFTISRDNSKNTLYLQMNSLRAEDTAVYYCARSANWHDTALDYWGQGTLVTVSS VL: DIQMTQSPSSLSASVGDRVTITCRASQSIVSYVNWYQQKPGKAPKLLIYAATSRASGVPSRFSGSGSGTDFTLTISSLQPEDFATYYCQQSYDTPLTFGGGTKVEIK",binding,[1],no binding (tested: 1 uM top)
same,binding,[2],no binding (tested: 1 uM top)
"370_A12 (antibody, V domains shown) VH: EVQLLESGGGLVQPGGSLRLSCAASGFTFSSYGMNWVRQAPGKGLEWVAGINYNGGYTSYADSVKGRFTISRDNSKNTLYLQMNSLRAEDTAVYYCARSANWHDTALDYWGQGTLVTVSS VL: DIQMTQSPSSLSASVGDRVTITCRASQSILTYLNWYQQKPGKAPKLLIYAATSLASGVPSRFSGSGSGTDFTLTISSLQPEDFATYYCQQSYDSPLTFGGGTKVEIK",binding,[1],no binding (tested: 1 uM top)
same,binding,[2],no binding (tested: 1 uM top)
"370_C05 (antibody, V domains shown) VH: EVQLLESGGGLVQPGGSLRLSCAASGFTFSSYSMNWVRQAPGKGLEWVAGINYNSGYTGYADSVKGRFTISRDNSKNTLYLQMNSLRAEDTAVYYCARSANWHDTALDYWGQGTLVTVSS VL: DIQMTQSPSSLSASVGDRVTITCRASQSILSYVNWYQQKPGKAPKLVIYAATSRASGVPSRFSGSGSGTDFTLTISSLQPEDFATYYCQQSYNSPLTFGGGTKVEIK",binding,[1],no binding (tested: 1 uM top)
same,binding,[2],no binding (tested: 1 uM top)
"370_D04 (antibody, V domains shown) VH: EVQLLESGGGLVQPGGSLRLSCAASGFTFDSYSMNWVRQAPGKGLEWVANINYNSGYKGYADSVKGRFTISRDNSKNTLYLQMNSLRAEDTAVYYCARSANWHDTALDYWGQGTLVTVSS VL: DIQMTQSPSSLSASVGDRVTITCRASQSILTYLNWYQQKPGKAPKLVIYAATSRASGVPSRFSGSGSGTDFTLTISSLQPEDFATYYCQQSYDNPLTFGGGTKVEIK",binding,[1],no binding (tested: 1 uM top)
same,binding,[2],no binding (tested: 1 uM top)
"370_E09 (antibody, V domains shown) VH: EVQLLESGGGLVQPGGSLRLSCAASGFTFDDSSMHWVRQAPGKGLEWVSNINYNGGYTGYADSVKGRFTISRDNSKNTLYLQMNSLRAEDTAVYYCAKSANWHDTALDYWGQGTLVTVSS VL: DIQMTQSPSSLSASVGDRVTITCRASQSILSYVNWYQQKPGKAPKLVIYAATSRASGVPSRFSGSGSGTDFTLTISSLQPEDFATYYCQQSYELPLTFGGGTKVEIK",binding,[1],no binding (tested: 1 uM top)
same,binding,[2],no binding (tested: 1 uM top)
"370_H01 (antibody, V domains shown) VH: EVQLLESGGGLVQPGGSLRLSCAASGFTFSSYSMNWVRQAPGKGLEWVSGINYNSGYKGYADSVKGRFTISRDNSKNTLYLQMNSLRAEDTAVYYCARSANWHDTALDYWGQGTLVTVSS VL: DIQMTQSPSSLSASVGDRVTITCRASQSIISYLNWYQQKPGKAPKLLIYAVTSRASGVPSRFSGSGSGTDFTLTISSLQPEDFATYYCQQSYDTPLTFGGGTKVEIK",binding,[1],no binding (tested: 1 uM top)
same,binding,[2],no binding (tested: 1 uM top)
